Experimental data taken from patent US20250222066A1, “COMPOSITIONS AND METHODS OF TREATING, PREVENTING OR INHIBITING A FACULTATIVE ANAEROBE INFECTION” (UNIVERSITY OF UTAH RESEARCH FOUNDATION, priority 2022, published 2025).
At least one structure is not confirmed: it was looked up by name or label, or the drawing left a doubt.

System: S. aureus ATCC 6538 biofilms
Test: CDC biofilm reactor coupons, 24 h antibiotic treatment, bioburden by serial dilution plating
Format: cell-based
Details: 24 h treatment
Description: For determining the broad-spectrum utility of metronidazole, respective bacterial species were grown into stationary biofilms using a 2- or 3-day species-specific growth protocol in a CDC biofilm reactor on standard 0.5 in polycarbonate coupons. Each reactor holds up to 24 coupons/samples with adherent biofilms. Bacterial bioburden, represented as colony forming units (CFUs), from five reactor samples/coupons (n=5) were quantified by first dispersing the bacterial biofilms in 2 ml of PBS by standardized vortex-sonication technique and serial-dilution plating. Importantly, this quantification technique provides bioburden data with logarithmic sensitivity. […] The gray shaded regions represent standard deviations. […]
After the 24 h treatment, the bacteria adhered to coupons were quantified by rinsing the samples very gently in excess PBS followed by vortexing and sonicating to disperse the biofilm in 2 ml PBS and subsequent serial-dilution plating. […]
Quantification of the post-treatment residual bioburden was performed by dispersing biofilm bacteria into the 2 ml treatments with its constituent bacteria by vortexing, and sonicating. […] The pelleted bacteria were resuspended and measured by the serial dilution plating technique. […]

C[C@H]1COc2c(N3CCN(C)CC3)c(F)cc3c(=O)c(C(=O)O)cn1c23 [Levofloxacin, levofloxacin]
synergy of the companion antibiotic with metronidazole against biofilms: considerably strengthened
